Results: PubChem BioAssay AID330 (DTP/NCI, 2004)
The list is a part of this screen's results and no random one: it gathers tests that were run many times, whatever their T/C, doses with no T/C, and many T/C values between a quarter and a half above the control. Other doses and runs of a compound stand elsewhere. T/C: endpoint of the treated group in % of that of the vehicle group. Some doses have a count of surviving animals in place of a T/C: the source files T/C as zero there, which appears to mark a toxic dose or a test without result, not a measured value. Some doses without a T/C left all or most animals alive at the check, yet need not have been tolerated: the source hardly ever lists a survival T/C far under the control, and the zero likely stands for such cases as well. Survivors were counted at the toxicity check, usually on the fifth day, unless a day is given; later deaths do not show. Schedule codes are those of the source, taken here to give the interval after Q, in days (D) or hours (H), and the number of doses after X. Some structures stand for samples that the source files as different forms (salt, stereo form or complex); doses refer to the form tested. Some doses were run more than once; the results are listed from low to high. For survival time, this PubChem deposit counts one and a half times the control or more as active, and values a quarter to a half above the control carry no call in these data; other NCI protocols may use other cut-offs. Some T/C values carry the count of animals alive at the toxicity check (mostly the fifth day); without a count, all were alive then.

System: P388 leukemia ip, CD2F1 mice, survival T/C
Experiment: NCI In Vivo Anticancer Drug Screen. Data for tumor model P388 Leukemia (intraperitoneal) in CD2F1 (CDF1) mice
Details: T/C endpoint: median survival time, higher T/C = longer survival
[1] = dose: 100.0 mg/kg/injection, schedule: Q01DX005 (ip), vehicle: saline
[2] = dose: 200.0 mg/kg/injection, schedule: Q01DX005 (ip), vehicle: saline
[3] = dose: 200.0 mg/kg/injection, schedule: Q01DX009 (ip), vehicle: saline
[4] = dose: 100.0 mg/kg/injection, schedule: Q01DX009 (ip), vehicle: saline with Tween-80
[5] = dose: 200.0 mg/kg/injection, schedule: Q01DX009 (ip), vehicle: saline with Tween-80
[6] = dose: 200.0 mg/kg/injection, schedule: Q01DX005 (ip), vehicle: saline with Tween-80
[7] = dose: 400.0 mg/kg/injection, schedule: Q04DX002 (ip), vehicle: saline
[8] = dose: 100.0 mg/kg/injection, schedule: Q01DX009 (ip), vehicle: saline
[9] = dose: 240.0 mg/kg/injection, schedule: Q01DX005 (ip), vehicle: saline with Tween-80

In the case of `[Cl][Co][Cl].[NH-]CC[N-]CC[N-]CC[NH-]`, the survivor count [1] was 4 of 6, the survivor count [2] was 0 of 6 and 2 of 6 and the survivor count [3] was 1 of 6.

For `[NH-]CC[N-]CCO.[NH-]CC[N-]CCO.[NH-]CC[N-]CCO.[Ni]`, the survivor count (dose: 50.0 mg/kg/injection, schedule: Q01DX005 (ip), vehicle: saline) was 5 of 5, the survivor count [1] was 1 of 5 and the survivor count [2] was 0 of 5.

`COc1ccc2c3c1OC1C(O)C=CC4C(C2)N(C)CCC341` (configuration not stated) was tested, and the survivor count (dose: 25.0 mg/kg/injection, schedule: Q01DX009 (ip), vehicle: saline with Tween-80) was 0 of 6, the survivor count (dose: 50.0 mg/kg/injection, schedule: Q01DX009 (ip), vehicle: saline with Tween-80) was 3 of 6 and the survivor count [4] was 0 of 6. The survivor count [5] was 0 of 6.

With `O=S(=O)(Nc1ccc2ccccc2c1)N1CCCCC1` the survivor count (dose: 400.0 mg/kg/injection, schedule: Q01DX009 (ip), vehicle: Klucel (hydroxypropylcellulose) (HPC)) was 5 of 5.

In the case of `CC1(C)N=C(N)N=C(N)N1c1ccc(OCCCNC(=O)Nc2cccc(S(=O)(=O)F)c2)c(Cl)c1`, the T/C (dose: 50.0 mg/kg/injection, schedule: Q04DX003 (ip), vehicle: saline with Tween-80) was 125 % of control, the T/C (dose: 66.0 mg/kg/injection, schedule: Q04DX003 (ip), vehicle: saline with Tween-80) was 129 % of control and the T/C (dose: 100.0 mg/kg/injection, schedule: Q04DX003 (ip), vehicle: saline with Tween-80) was 135 and 137 % of control [5 of 6 alive]. For the same compound, the survivor count (dose: 150.0 mg/kg/injection, schedule: Q04DX003 (ip), vehicle: saline with Tween-80) was 6 of 6 and the survivor count (dose: 200.0 mg/kg/injection, schedule: Q04DX003 (ip), vehicle: saline with Tween-80) was 0 of 6.

`CCN(CC)c1nc(N)nc(N)n1` was tested, and the survivor count (dose: 50.0 mg/kg/injection, schedule: Q01DX009 (ip), vehicle: saline) was 6 of 6 and the survivor count [4] was 3 of 6.

In the case of `CN(C)CC/C=C1/c2ccccc2C=Nc2ccc(Cl)cc21`, the survivor count (dose: 50.0 mg/kg/injection, schedule: Q01DX009 (ip), vehicle: Klucel (hydroxypropylcellulose) (HPC)) was 0 of 6, the survivor count (dose: 100.0 mg/kg/injection, schedule: Q01DX009 (ip), vehicle: Klucel (hydroxypropylcellulose) (HPC)) was 0 of 6 and the survivor count (dose: 200.0 mg/kg/injection, schedule: Q01DX009 (ip), vehicle: Klucel (hydroxypropylcellulose) (HPC)) was 0 of 6.

For `O=S(=O)(O)c1ccc(-c2ccc(S(=O)(=O)O)cc2)cc1` (tested in a mixture with another compound), the survivor count (dose: 100.0 mg/kg/injection, schedule: Q04DX003 (ip), vehicle: saline sonified) was 6 of 6 and the survivor count (dose: 200.0 mg/kg/injection, schedule: Q04DX003 (ip), vehicle: saline sonified) was 5 of 6.

With `CCN(CC)c1ccc2nc3ccc(N=Nc4c(O)ccc5ccccc45)cc3[n+](-c3ccccc3)c2c1` the T/C (dose: 3.12 mg/kg/injection, schedule: Q01DX005 (ip), vehicle: saline) was 128 % of control, the survivor count (dose: 6.25 mg/kg/injection, schedule: Q01DX005 (ip), vehicle: saline) was 4 of 6 and the survivor count (dose: 12.5 mg/kg/injection, schedule: Q01DX005 (ip), vehicle: saline) was 1 of 6.

For `CC1OC(O[C@H]2C[C@](O)(C(=O)CO)Cc3c(O)c4c(c(O)c32)C(=O)c2c(OCc3ccccc3)cccc2C4=O)CC(N)C1O` (some centres not stated), the T/C (dose: 3.13 mg/kg/injection, schedule: Q04DX003 (ip), vehicle: distilled water + Tween-80) was 125 % of control, the T/C (dose: 12.5 mg/kg/injection, schedule: Q04DX003 (ip), vehicle: distilled water + Tween-80) was 131 % of control and the T/C (dose: 25.0 mg/kg/injection, schedule: Q04DX003 (ip), vehicle: distilled water + Tween-80) was 128 % of control. For the same compound, the T/C (dose: 50.0 mg/kg/injection, schedule: Q04DX003 (ip), vehicle: distilled water + Tween-80) was 128 % of control.

With `CCOC(=O)CCCn1nc(-c2ccc(Cl)cc2)c(-c2ccc(Cl)cc2)c(C#N)c1=O` the T/C (dose: 200.0 mg/kg/injection, schedule: Q04DX002 (ip), vehicle: saline with Tween-80) was 144 % of control and the survivor count (dose: 400.0 mg/kg/injection, schedule: Q04DX002 (ip), vehicle: saline with Tween-80) was 3 of 6.

`O=C(O)C(O)CBr` (configuration not stated) was tested, and the survivor count (dose: 12.5 mg/kg/injection, schedule: Q04DX003 (ip), vehicle: saline) was 6 of 6.

`O=C1CN(Cc2cccc(Cl)c2)CC(=O)N2Cc3ccccc3CN12` was tested, and the survivor count [6] was 5 of 5.

For `CC(=O)Oc1cccn(C)c1=O`, the T/C (dose: 600.0 mg/kg/injection, schedule: Q01DX009 (ip), vehicle: saline) was 135 [5 of 6 alive] and 144 % of control and the survivor count (dose: 800.0 mg/kg/injection, schedule: Q01DX009 (ip), vehicle: saline) was 0 of 6.

With `CC(C(=O)O)S(=O)(=O)C(C)C(=O)O` (configuration not stated) the survivor count [7] was 3 of 6.

For `CCNc1snc2c1c(=O)[nH]c(=O)n2Cc1ccccc1`, the survivor count [8] was 6 of 6 and the survivor count [3] was 6 of 6.

For `N#CSCCC(=O)Nc1ccccc1`, the survivor count (dose: 50.0 mg/kg/injection, schedule: Q01DX005 (ip), vehicle: Klucel (hydroxypropylcellulose) (HPC)) was 0 of 5, the survivor count (dose: 100.0 mg/kg/injection, schedule: Q01DX005 (ip), vehicle: Klucel (hydroxypropylcellulose) (HPC)) was 0 of 5 and the survivor count (dose: 200.0 mg/kg/injection, schedule: Q01DX005 (ip), vehicle: Klucel (hydroxypropylcellulose) (HPC)) was 0 of 5.

For `CC1CN1S(=O)(=O)N1CC1C` (configuration not stated), the T/C (dose: 10.0 mg/kg/injection, schedule: Q01DX009 (ip), vehicle: saline with Tween-80) was 145 % of control.

With `CC(C)C1=CC23CCC4C(C)(C(=O)O)CCCC4(C)C2CC1C1C(=O)N(CCCN(C)C)C(=O)C13` (configuration not stated) the survivor count [9] was 0 of 6.

For `CNC(=O)Oc1ccc(/C=N/Sc2cccc([N+](=O)[O-])c2)cc1`, the survivor count [5] was 6 of 6.

In the case of `C=CCN(CC=C)Sc1cccc([N+](=O)[O-])c1`, the survivor count [3] was 1 of 6.

In the case of `COC1=CC(=O)C(C2(OC(C)C)OC(=O)C(Cl)=C2Cl)=CC1=O` (configuration not stated), the survivor count [6] was 2 of 6.

For `CN=C(N)N/N=C(\C)c1ccc2c(c1)Cc1cc(Br)ccc1-2`, the survivor count (dose: 100.0 mg/kg/injection, schedule: Q04DX002 (ip), vehicle: saline with Tween-80) was 1 of 6.

For `Oc1c(Cl)cc(Cl)cc1/C=N/NC(=S)Nc1cc(C(F)(F)F)cc(C(F)(F)F)c1`, the survivor count (dose: 200.0 mg/kg/injection, schedule: Q01DX009 (ip), vehicle: olive oil, sesame oil, peanut oil) was 6 of 6 and the survivor count (dose: 400.0 mg/kg/injection, schedule: Q01DX009 (ip), vehicle: olive oil, sesame oil, peanut oil) was 6 of 6.

For `C1COCCOCCOCCO1.[Br][Sn]([Br])([Br])[Br]`, the survivor count (dose: 240.0 mg/kg/injection, schedule: Q01DX005 (ip), vehicle: Klucel (hydroxypropylcellulose) (HPC)) was 6 of 6.

`Cc1ccc(C(C)C)c2c1CN(CCN1COc3c(C(C)C)ccc(C)c3C1)CO2` was tested, and the survivor count (dose: 60.0 mg/kg/injection, schedule: Q01DX005 (ip), vehicle: saline with Tween-80) was 6 of 6, the survivor count (dose: 120.0 mg/kg/injection, schedule: Q01DX005 (ip), vehicle: saline with Tween-80) was 6 of 6 and the survivor count [9] was 6 of 6.

`COCCCNC1=C(C#N)C(=O)NC(c2cccs2)S1` (configuration not stated) was tested, and the T/C [5] was 128 % of control and the T/C (dose: 400.0 mg/kg/injection, schedule: Q01DX009 (ip), vehicle: saline with Tween-80) was 126 % of control [5 of 6 alive].

`CC(C)CC(=O)C1C(c2ccccc2)CC(=O)C(C(C)C)C1c1ccccc1` (configuration not stated) was tested, and the survivor count [6] was 5 of 5.

In the case of `O=C(O)/C=C\S(=O)(=O)O`, the survivor count (dose: 100.0 mg/kg/injection, schedule: Q04DX002 (ip), vehicle: saline) was 2 of 6, the survivor count (dose: 200.0 mg/kg/injection, schedule: Q04DX002 (ip), vehicle: saline) was 0 of 6 and the survivor count [7] was 0 of 6.

`COc1cc(NCC(C)(O)CN(CC(C)C)CC(C)C)c2ncccc2c1` (configuration not stated) was tested, and the survivor count [1] was 0 of 5 and the survivor count [2] was 0 of 5.

`[CH3][Sn]([CH3])([S]CCS(=O)(=O)O)[S]CCS(=O)(=O)O` was tested, and the T/C (dose: 60.0 mg/kg/injection, schedule: Q01DX005 (ip), vehicle: saline) was 125 % of control, the survivor count (dose: 120.0 mg/kg/injection, schedule: Q01DX005 (ip), vehicle: saline) was 3 of 6 and the survivor count (dose: 240.0 mg/kg/injection, schedule: Q01DX005 (ip), vehicle: saline) was 0 of 6.

In the case of `CCCCCCCCCC[N+]1([O-])CCCCC1`, the survivor count [8] was 4 of 6 and the survivor count [3] was 0 of 6.
